Data taken from US9918479B2, “Control of phytopathogenic microorganisms with Pseudomonas sp. and substances and compositions derived therefrom” (priority 2012, dated 2018).
For at least one compound, name, drawing or mass did not settle the structure.

tested on: CL145A (ATCC 55799); test: Antibiotic resistance profile, antibiotic discs on Mueller-Hinton agar; conditions: 72 hours incubation

Question: For `C[C@@H](O)[C@H]1C(=O)N2C(C(=O)O)=C(SCCN=CN)C[C@H]12` [Imipenem], which “CL145A resistant or sensitive to the antibiotic (growth inhibited by the antibiotic disc)” value is on record?
Answer: sensitive

Question: For `NC[C@H]1O[C@H](O[C@H]2[C@H](O)[C@@H](O[C@H]3O[C@H](CO)[C@@H](O)[C@H](N)[C@H]3O)[C@H](N)C[C@@H]2N)[C@H](O)[C@@H](O)[C@@H]1O` [Kanamycin], which “CL145A resistant or sensitive to the antibiotic (growth inhibited by the antibiotic disc)” value is on record?
Answer: sensitive

Question: How did the “CL145A resistant or sensitive to the antibiotic (growth inhibited by the antibiotic disc)” value turn out when `CN(C)[C@@H]1C(O)=C(C(N)=O)C(=O)[C@@]2(O)C(O)=C3C(=O)c4c(O)cccc4[C@@](C)(O)[C@H]3[C@H](O)[C@@H]12` [Oxytetracycline] was run?
Answer: sensitive

Question: For `CN(C)[C@@H]1C(O)=C(C(N)=O)C(=O)[C@@]2(O)C(O)=C3C(=O)c4c(O)cccc4[C@@](C)(O)[C@H]3C[C@@H]12` [Tetracycline], which “CL145A resistant or sensitive to the antibiotic (growth inhibited by the antibiotic disc)” value is on record?
Answer: resistant
